## Library screen at single concentrations

Measurements from “University of Dundee, Small-Polar-MMV Screening Library” (2021), ChEMBL document CHEMBL3988442.

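Assay of Toxoplasma gondii numbers, read through their beta-galactosidase reporter with a colour substrate. Compounds at 50 µM. The record gives no direction; the compounds picked for IC50 retests had high values, so higher reads as fewer parasites. Size under these conditions: about 18,000 compounds, about 170 of them at 50% or above in at least one test.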

Values are the deposited “Percent Effect”, in %.
How 0% and 100% were set is not recorded. Most values in the screen are low, and negative values occur.
The compounds are a random part of those screened.

| # | SMILES | percent effect |
|---|---|---|
| 1 | `CN(C)c1ccnc(NC(=O)c2cc[nH]n2)c1` | -3.122% |
| 2 | `Cc1ccc(C(=O)NCCCNS(C)(=O)=O)s1` | 0.9914% |
| 3 | `Cc1ccc(NCCCO)c(C(=O)N(C)C)c1` | -2.837% |
| 4 | `Cc1onc(-c2ccccn2)c1C(=O)NC(C)C` | -40.22% |
| 5 | `CC(=O)c1csc(C(=O)Nc2n[nH]c(C3CCC3)n2)c1` | 7.517% |
| 6 | `CC(NC(=O)c1ccc(CCNS(C)(=O)=O)s1)C1CC1` (centres undefined) | -1.255% |
| 7 | `Cc1nc(C)n(C(C)CC(=O)Nc2cccnc2)n1` (centres undefined) | 9.411% |
| 8 | `CCOC1CC(CN)(N2CCOCC2)C1` (centres undefined) | 12.55% |
| 9 | `CCC(CC)(CC)SCC(=O)N1CCNC(=O)C1` | 45.57% |
| 10 | `CC(=O)NC1CCN(Cc2cnc(N(C)C)nc2)C1` (centres undefined) | 0.4841% |
| 11 | `CCN(CC)C(=O)COc1cccc(S(C)(=O)=O)c1` | -3.375% |
| 12 | `CC[C@H](CO)NS(=O)(=O)c1c(F)cc(C#N)cc1F` | 4.665% |
| 13 | `Cc1noc(C(C)N2CCn3ccnc3C2)n1` (centres undefined) | 2.665% |
| 14 | `NCC(CO)c1ccc(Cl)cc1` (centres undefined) | 1.537% |
| 15 | `COCCN(CC(N)=O)C(=O)c1ccc(F)c(Br)c1` | -18.71% |
| 16 | `Cc1c(Br)cccc1C(=O)NC(C(N)=O)C(C)C` (centres undefined) | 12.14% |
| 17 | `OCCC1CCCN1Cc1ccc2ccccc2n1` (centres undefined) | 3.01% |
| 18 | `CCC1(NC(=O)c2coc(S(=O)(=O)N(C)C)c2)CCC1` | 4.077% |
| 19 | `Cc1nnc(SCCSC(C)(C)C)n1CC(N)=O` | -11.68% |
| 20 | `O=C1CCN(Cc2ccccc2)C2(CC2)C1` | -10.36% |
| 21 | `CC(=O)N1CCOC(CN)C1` (centres undefined) | -1.218% |
| 22 | `O=C(NCCSCc1ccco1)c1cccnc1O` | -3.309% |
| 23 | `CCc1nccn1CCNC(=O)CN1CCCC(O)C1` (centres undefined) | -8.787% |
| 24 | `COc1cc(F)ccc1NS(=O)(=O)N1CCOCC1` | 7.728% |
| 25 | `CC(C)OC(=O)C(C)CN` (centres undefined) | -15.57% |
| 26 | `NC(=O)CN1CCC(NC(=O)c2cc(Br)c[nH]2)CC1` | 0.5061% |
| 27 | `O=S(=O)(Cc1ccccc1C(F)(F)F)CC(O)CO` (centres undefined) | -7.98% |
| 28 | `CCc1nnsc1C(=O)NCc1cc(C)no1` | 0.6304% |
| 29 | `Cc1cccc(NC(=O)CC2CCS(=O)(=O)C2)c1C` (centres undefined) | 7.023% |
| 30 | `Cn1ncnc1CN1CCCC1C(=O)N1CCSCC1` (centres undefined) | 7.028% |
| 31 | `CCC(O)(CC)CN1CCC(O)CC1` | -20.65% |
| 32 | `COCCC(C)CN` (centres undefined) | -0.1168% |
| 33 | `CCNC(=O)[C@@H](NC(=O)c1ccccc1)C(C)C` | 3.018% |
| 34 | `O=C1NC(CC(=O)N2CCSCC2)c2ccccc21` (centres undefined) | 4.684% |
| 35 | `Cc1nccc(C2(N)CC2)n1` | 17.99% |
| 36 | `CCCN(CC(=O)N(C)C)Cc1ccc(C#N)cc1` | 13.16% |
| 37 | `COC[C@@H]1CN(C(=O)c2cccc(F)c2)C[C@H]1C(N)=O` | 18.24% |
| 38 | `OC(CN1CCOCC12CCCC2)C(F)(F)F` (centres undefined) | -12.54% |
| 39 | `COCCNC(=O)c1ccc2c(c1)OCCCO2` | -9.823% |
| 40 | `O=C(Cc1cccs1)N1CCNCC1` | 1.272% |
| 41 | `Cn1nccc1CCC(=O)NCCN1CCCC1` | 10.39% |
| 42 | `CCOC(=O)CNc1ccc(OC)cc1` | -18.27% |
| 43 | `Cc1nn(C)c(C)c1CC(=O)N1CCCC(C(N)=O)C1` (centres undefined) | -4.457% |
| 44 | `CCC(NC(=O)c1cnc(O)cn1)c1ncnn1C` (centres undefined) | -0.5654% |
| 45 | `Cc1occc1S(=O)(=O)Cc1nc(C2CC2)n[nH]1` | -20.27% |
| 46 | `CN(C(=O)CCn1cccn1)C1CCS(=O)(=O)C1` (centres undefined) | -16.17% |
| 47 | `Cc1ccc(S(=O)(=O)NCc2ncc[nH]2)cc1` | 2.294% |
| 48 | `NC(=O)C1CC(=O)N(Cc2ccccc2C(F)(F)F)C1` (centres undefined) | -10.97% |
| 49 | `Cc1n[nH]cc1CNC(=O)C(C)N(C)CC(F)(F)F` (centres undefined) | -1.532% |
| 50 | `NC(=O)C1Cc2ccccc2CN1Cc1ccccn1` (centres undefined) | 5.366% |
| 51 | `Fc1cccc(-c2noc(C3CCCN3)n2)c1` (centres undefined) | 0.1082% |
| 52 | `Clc1cnccc1CN1CCC2(CCOC2)C1` (centres undefined) | 3.263% |
| 53 | `CC1CN(C)CCN1C(=O)Nc1ccccn1` (centres undefined) | 6.008% |
| 54 | `CCCN(CC(N)=O)S(=O)(=O)N1CCCCC1` | -6.636% |
| 55 | `COCCNc1ncnc2c1cnn2CCC#N` | 13.68% |
| 56 | `COc1cc(CN2CCCC2CO)cc2c1OCO2` (centres undefined) | -13.79% |
| 57 | `Cc1cccc(OCCNC(=O)CCn2cncn2)c1` | 0.5488% |
| 58 | `CC(C)(C)C(=O)NCC1CCCNC1` (centres undefined) | 15.92% |

Repeated from the top, 7 entries:

CN(C)c1ccnc(NC(=O)c2cc[nH]n2)c1 gave -3.122%.
Cc1ccc(C(=O)NCCCNS(C)(=O)=O)s1 gave 0.9914%.
Cc1ccc(NCCCO)c(C(=O)N(C)C)c1 gave -2.837%.
Cc1onc(-c2ccccn2)c1C(=O)NC(C)C gave -40.22%.
CC(=O)c1csc(C(=O)Nc2n[nH]c(C3CCC3)n2)c1 gave 7.517%.
CC(NC(=O)c1ccc(CCNS(C)(=O)=O)s1)C1CC1 (centres undefined) gave -1.255%.
Cc1nc(C)n(C(C)CC(=O)Nc2cccnc2)n1 (centres undefined) gave 9.411%.